# Percent effect of library compounds

Chains of the proteins cited; added tags and fusions are not shown. Residues count along the entry.
UniProt Q8IDJ8, 1-583: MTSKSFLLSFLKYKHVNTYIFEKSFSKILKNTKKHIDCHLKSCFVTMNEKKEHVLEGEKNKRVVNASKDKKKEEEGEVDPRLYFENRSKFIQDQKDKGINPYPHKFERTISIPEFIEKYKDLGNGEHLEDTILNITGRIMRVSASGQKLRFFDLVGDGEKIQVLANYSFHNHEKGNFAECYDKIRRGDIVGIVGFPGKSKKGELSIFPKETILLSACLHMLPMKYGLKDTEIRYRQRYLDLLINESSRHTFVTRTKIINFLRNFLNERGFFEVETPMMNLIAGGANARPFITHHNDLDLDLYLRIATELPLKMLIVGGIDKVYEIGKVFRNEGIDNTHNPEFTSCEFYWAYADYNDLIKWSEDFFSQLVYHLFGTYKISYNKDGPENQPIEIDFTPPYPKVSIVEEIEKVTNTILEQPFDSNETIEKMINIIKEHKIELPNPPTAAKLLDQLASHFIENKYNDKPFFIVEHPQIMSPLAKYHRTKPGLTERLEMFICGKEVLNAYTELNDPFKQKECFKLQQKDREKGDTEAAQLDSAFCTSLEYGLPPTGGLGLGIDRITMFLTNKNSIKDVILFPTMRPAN
UniProt A4I591, 1-473: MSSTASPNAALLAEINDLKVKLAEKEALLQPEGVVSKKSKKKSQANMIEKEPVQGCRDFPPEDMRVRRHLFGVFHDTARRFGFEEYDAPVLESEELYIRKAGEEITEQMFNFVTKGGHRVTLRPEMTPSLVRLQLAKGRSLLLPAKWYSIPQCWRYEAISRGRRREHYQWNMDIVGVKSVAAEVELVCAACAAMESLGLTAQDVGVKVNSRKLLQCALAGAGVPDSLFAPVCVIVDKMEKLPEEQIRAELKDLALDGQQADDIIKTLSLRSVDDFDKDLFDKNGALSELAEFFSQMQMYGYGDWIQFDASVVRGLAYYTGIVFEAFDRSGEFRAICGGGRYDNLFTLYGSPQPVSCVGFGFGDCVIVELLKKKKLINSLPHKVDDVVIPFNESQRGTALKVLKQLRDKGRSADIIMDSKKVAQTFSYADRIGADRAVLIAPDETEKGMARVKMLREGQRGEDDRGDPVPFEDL
UniProt Q4DA54, 1-478: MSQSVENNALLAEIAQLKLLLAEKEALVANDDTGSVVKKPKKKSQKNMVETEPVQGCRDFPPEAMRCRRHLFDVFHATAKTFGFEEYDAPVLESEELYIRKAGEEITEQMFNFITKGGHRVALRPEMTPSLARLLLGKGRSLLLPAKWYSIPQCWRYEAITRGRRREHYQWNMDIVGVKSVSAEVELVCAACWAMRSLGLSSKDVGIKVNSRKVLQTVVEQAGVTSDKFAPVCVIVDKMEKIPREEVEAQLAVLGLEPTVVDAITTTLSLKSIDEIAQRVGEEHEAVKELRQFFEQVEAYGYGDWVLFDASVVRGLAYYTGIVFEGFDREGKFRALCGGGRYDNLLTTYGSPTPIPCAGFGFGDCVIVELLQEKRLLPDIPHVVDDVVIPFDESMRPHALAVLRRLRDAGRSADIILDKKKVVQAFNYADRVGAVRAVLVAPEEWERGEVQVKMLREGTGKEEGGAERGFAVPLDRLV
UniProt P9WPC5, whole entry: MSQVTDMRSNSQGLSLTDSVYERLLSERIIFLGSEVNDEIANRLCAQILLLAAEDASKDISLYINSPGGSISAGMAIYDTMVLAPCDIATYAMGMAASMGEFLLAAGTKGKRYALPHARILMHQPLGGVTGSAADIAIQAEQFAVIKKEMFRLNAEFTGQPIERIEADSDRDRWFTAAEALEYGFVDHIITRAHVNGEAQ
UniProt P9WPC3, whole entry partner: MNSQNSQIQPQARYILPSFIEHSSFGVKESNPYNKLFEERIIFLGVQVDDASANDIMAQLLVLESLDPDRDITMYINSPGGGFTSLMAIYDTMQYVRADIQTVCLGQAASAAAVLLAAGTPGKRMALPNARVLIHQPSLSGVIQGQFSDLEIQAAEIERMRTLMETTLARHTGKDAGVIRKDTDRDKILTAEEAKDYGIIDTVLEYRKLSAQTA

Data taken from ChEMBL document CHEMBL3988442, “University of Dundee, Small-Polar-MMV Screening Library” (2021).

The filed quantity is “Percent Effect” (%).
How 0% and 100% were set is not recorded. Most values in the screen are low, and negative values occur.
The compounds are a random part of those screened.
Two or more numbers in one place are separate tests of the same structure; such repeats can differ widely.

A: 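Enzyme assay of the cytosolic lysyl-tRNA synthetase in 384-well plates, read by luminescence. Target: Lysine-tRNA ligase, Plasmodium falciparum 3D7 (UniProt Q8IDJ8). Concentration: 30 µM. Direction is inferred from only a few compounds that gave an IC50; most scored high, so higher reads as stronger inhibition. About 69,000 compounds were tested under these conditions; 0.071% (about 49) showed 50% or more at least once.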
B: 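Histidine-tRNA ligase, Leishmania infantum (UniProt A4I591). Enzyme assay of histidyl-tRNA synthetase; the read-out is not stated. Tested at 30 µM. Higher reads as stronger inhibition (inferred: compounds with an IC50 in retests scored well above the rest). The assay is labelled LdHisRS but filed under L. infantum. Size under these conditions: about 69,000 compounds, about 410 of them at 50% or above in at least one test.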
C: 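Enzyme assay of histidyl-tRNA synthetase; the read-out is not stated. Target: Histidine-tRNA ligase, Trypanosoma cruzi CL Brener (UniProt Q4DA54). Compounds at 30 µM. The record gives no direction; compounds that gave an IC50 in retests scored well above the rest, so higher reads as stronger inhibition. Size under these conditions: about 69,000 compounds, about 31 of them at 50% or above in at least one test.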
D: 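Cell assay of Leishmania donovani living inside macrophages; the read-out is not stated. Concentration: 30 µM. Higher reads as stronger inhibition (inferred: compounds with an IC50 in retests scored well above the rest). Of about 69,000 compounds tested this way, about 1,000 (1.5%) reached 50% or more in at least one test.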
E: 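Protease assay of ClpP1P2, read by the AMC dye that it sets free. Target: ClpP1P2, Mycobacterium tuberculosis (UniProt P9WPC5 and UniProt P9WPC3). Tested at 50 µM. Direction is inferred from only a few compounds that gave an IC50; most scored high, so higher reads as stronger inhibition. Most other retested compounds had strongly negative values. Of about 69,000 compounds tested this way, about 10 (0.015%) reached 50% or more in at least one test.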

Result for O=C(c1cc2c(F)cccc2[nH]1)N1CCC(Nc2cccnn2)CC1 was A: 0.02117%; B: 4.386%; C: 3.779%; D: 30.18%; E: -17.2%. Result for O=C(c1ccccc1F)N1CCOC(c2nc(-c3ncccn3)no2)C1 (centres undefined) was A: 4.063%; B: 14.43%; C: 11.11%; D: 6.561% and 5.016%; E: 1.871%. With Cc1cncc(Oc2ccc(CO)cc2)n1 the screen gave A: 3.529%; B: 12.5%; C: 5.208%; D: 11.2%; E: -5.394%. Result for [H][C@]12CC[C@@]3(N=C(CC)N(CC4CC4)C3=O)[C@@]1([H])CN(S(=O)(=O)CC(C)C)C2 was D: 1.163% and 5.626%. With CSCC[C@H](N)C(=O)N1CC(Oc2ccccc2C)C1 the screen gave A: -4.465%; B: 2.618%; C: 8.021%; D: 22.63%; E: 2.311%. Result for CSc1nnc(CNC(=O)Nc2ccccc2F)n1C was A: -0.3702%; B: 2.878%; C: 3.448%; D: 17.43%; E: -25.32%. Result for [H][C@@]12CCN(S(=O)(=O)C3CC3)[C@]1([H])CC[C@@H](c1nnc(C)o1)O2 was D: -5.318%.

Result for CC(C)CC(=O)N1CC(=O)c2sc(Nc3ccc(F)cc3F)nc2C1 was A: 2.527%; B: 8.571%; C: 9.04%; D: -13.16% and 3.472%; E: -8.55%. C[C@@H]1CN(CC(C)(C)N2CCCCC2)CC[C@@]1(O)C1CC1 read A: -3.033%; B: -10.45%; C: 0%; D: 33.72%; E: -9.376%. With Cc1cc(C)nc(N(C)CCN(C)C2CCCC2)n1 the screen gave A: 4.246%; B: 17.14%; C: 8.163%; D: 10.78%; E: 4.203%. With CCOc1ccc(C(=O)N2CCCCC2Cn2nc(C)cc2C)cn1 (centres undefined) the screen gave A: -2.424%; B: -3.509%; C: 2.579%; D: -26.89%; E: 1.457%. For c1ccn2c(C3CCCN3Cc3nc(C4CC4)no3)nnc2c1 (centres undefined) the result was A: 2.075%; B: 8.434%; C: 8.458%; D: 10.81%; E: -12.29%. Cc1cscc1C(=O)NC1CC(=O)N(C(C)C)C1=O (centres undefined) gave A: 3.98%; B: 14.71%; C: -0.5291%; D: 2.94%; E: 3.367%. COc1cc2c(cc1CNC(=O)Cc1cc(C)on1)OC(C)C2 (centres undefined) read A: 2.903%; B: 13.51%; C: 6.667%; D: 12.65%; E: -3.001%.

CC(NC(=O)CN1C=Nc2ccccc2S1(=O)=O)C1CC1 (centres undefined) gave A: 3.492%; B: -2.632%; C: 1.724%; D: -7.279%; E: 5.569%. Result for CNS(=O)(=O)c1ccc(CNC(=O)Nc2cc(C)on2)s1 was A: 6.684%; B: 11.69%; C: 0.4926%; D: 37.19%; E: -4.441%. For COc1ccc(F)cc1NC(=O)NCC1(C)COC1 the result was A: 0.7855%; B: 8.547%; C: 7.027%; D: -20.63%; E: -2.665%. c1cc(-c2noc([C@@H]3Cc4nc[nH]c4CN3)n2)ccn1 gave A: 2.385%; B: 2.778%; C: 6.931%; D: 34.8%; E: -6.683%. Result for CN1CCCC(c2cccc(-c3cccc(C(F)(F)F)c3)n2)C1 (centres undefined) was A: -0.186%; B: 11.35%; C: 6.977%; D: 17.62%; E: 11.49%. For Cn1c(CN2CCOC(Cn3cncn3)C2)nc2ccccc21 (centres undefined) the result was A: -0.01114%; B: 0%; C: 7.853%; D: -55.25%; E: -1.65%. COC1COC2(CCN(Cc3ccc4c(c3)OCO4)CC2)C1 (centres undefined) read A: 1.954%; B: -7.692%; C: 1.942%; E: -7.297%.

Result for O=c1[nH]c2ccccc2c2c1CCO2 was A: 2.264%; B: 12.64%; C: 5.155%; D: -0.4514%; E: -0.01976%. COC(=O)c1ccc(CN(C(C)C)C(C)C)o1.Cl gave D: 39.31%. Cc1cc(C)c2nc(CNC3CCNC3=O)cc(O)c2c1 (centres undefined) read A: 14.91%; B: 11.57%; C: -1.681%; D: 0.08155%; E: -11.94%. O=C(O)C(F)(F)F.O=C(O)C(F)(F)F.[H][C@@]12CN(Cc3cccnc3)C[C@]1([H])CN(C(=O)c1cnc(C)cn1)C2 read D: 19.7%. COCc1ccc(C(=O)N2CC[C@H](O)[C@@H](n3ccnc3)CC2)cc1 read A: 2.285%; B: 10.31%; C: 6.667%; D: 28.29% and 8.819%; E: -3.577%. For Cc1nc(C)n(CC(=O)N2CCCC(c3cc4ccccc4cn3)C2)n1 (centres undefined) the result was A: 2.887%; B: 10.34%; C: 6.084%; D: -3.698%; E: -12.55%.

Repeated from the top, 2 entries:

Compound,A,B,C,D,E
O=C(c1cc2c(F)cccc2[nH]1)N1CCC(Nc2cccnn2)CC1,0.02117,4.386,3.779,30.18,-17.2
O=C(c1ccccc1F)N1CCOC(c2nc(-c3ncccn3)no2)C1 (centres undefined),4.063,14.43,11.11,6.561 and 5.016,1.871